PubChem BioAssay AID1259254, NCATS | 2017

Aim: 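Genome-wide screen for genes that prevent DNA re-replication in cancer cells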 (primary screen)
System: human HCT116 colorectal cancer cells
Knock-down reagent: single siRNA against human genes
Duration: 3 days
Read-out: 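Imaged Hoechst DNA stain sorts each cell into a cycle phase by DNA amount; per plate, G2 fraction set to 0% for non-targeting and 100% for GMNN siRNA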
Scale: G2 robust z-score: higher = more G2 cells, more excess DNA replication
Hit rule: 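Active siRNAs have a G2 robust z of 5 or more median absolute deviations over the median, which in these data means about 38% or higher of GMNN control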
The deposit covers about 59,000 reagents; this is an unselected part. In the full data, about 1,550 (2.6%) were called active. 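G2 share is only a proxy for re-replication; each gene was hit by three separate siRNAs, and active genes were retested.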 The numbers tell different reagents against one gene apart. Further read-outs or replicates are left out here. The record does not give: the amount of reagent.

NIBAN2 (niban apoptosis regulator 2) #1 → G2 robust z-score: -0.751; Call: inactive
NIBAN2 (niban apoptosis regulator 2) #2 → G2 robust z-score: 0.212; Call: inactive
NIBAN2 (niban apoptosis regulator 2) #3 → G2 robust z-score: 2.93; Call: inactive
COL22A1 (collagen type XXII alpha 1 chain) #1 → G2 robust z-score: -0.00126; Call: inactive
COL22A1 (collagen type XXII alpha 1 chain) #2 → G2 robust z-score: 7.25; Call: active
COL22A1 (collagen type XXII alpha 1 chain) #3 → G2 robust z-score: 1.13; Call: inactive
ZMYM5 (zinc finger MYM-type containing 5) #1 → G2 robust z-score: -0.845; Call: inactive
ZMYM5 (zinc finger MYM-type containing 5) #2 → G2 robust z-score: -0.246; Call: inactive
ZMYM5 (zinc finger MYM-type containing 5) #3 → G2 robust z-score: -0.811; Call: inactive
RBM34 (RNA binding motif protein 34) #1 → G2 robust z-score: 0.185; Call: inactive
RBM34 (RNA binding motif protein 34) #2 → G2 robust z-score: -0.643; Call: inactive
RBM34 (RNA binding motif protein 34) #3 → G2 robust z-score: -0.407; Call: inactive
